The list shows only some results of the screen, not a fair sample: it gathers tests that were run many times, whatever their T/C, doses with no T/C, and many T/C values between a quarter and a half above the control. Further doses and runs are listed elsewhere. T/C: endpoint of the treated group in % of that of the vehicle group. Schedules are NCI's codes, read here as Q, the interval in days (D) or hours (H), X, the number of doses. Some entries give survivors of the animals treated and no T/C: the source files T/C as zero there, which appears to mark a toxic dose or a test without result, not a measured value. Some survivor counts are full or nearly so, which does not show that the dose was tolerated: survival well below the control is almost never listed, so the zero probably covers shortened survival too. Counts of survivors are from the toxicity check (mostly the fifth day) where no day follows; animals may have died later. For survival time, this PubChem deposit counts one and a half times the control or more as active, and values a quarter to a half above the control carry no call in these data; other NCI protocols may use other cut-offs. Some entries were tested several times; their values stand side by side, smallest first. Marks such as (2×) say how often a value occurs here.
System: BDF1 mice, B16 melanoma s.c., survival/tumor T/C
Test: NCI In Vivo Anticancer Drug Screen. Data for tumor model B16 Melanoma (subcutaneous) in B6D2F1 (BDF1) mice
Procedure: The antitumor activity of compounds was measured in mice bearing transplantable tumors. Survival or tumor size were measured and the results are expressed as the measurement made in the treated group (T) divided by the measurement made in the vehicle treated control group (C). The tumor model used in this assay is B16 Melanoma (subcutaneous) in B6D2F1 (BDF1) mice

[1] = T/C endpoint: median survival time, dose: 8.0 mg/kg/injection, schedule: Q01DX009 (ip), vehicle: saline, higher T/C = longer survival
[2] = T/C endpoint: median survival time, dose: 16.0 mg/kg/injection, schedule: Q01DX009 (ip), vehicle: saline, higher T/C = longer survival

Nc1ncnc2c1ccn2C1OC(CO)C(O)C1O (stereo not drawn)
survivor count (T/C endpoint: median survival time, dose: 2.0 mg/kg/injection, schedule: Q01DX009 (ip), vehicle: Klucel (hydroxypropylcellulose) (HPC), higher T/C = longer survival): 9 of 10
survivor count (T/C endpoint: median survival time, dose: 2.0 mg/kg/injection, schedule: Q01DX009 (ip), vehicle: saline, higher T/C = longer survival): 10 of 10
survivor count (T/C endpoint: median survival time, dose: 4.0 mg/kg/injection, schedule: Q01DX009 (ip), vehicle: Klucel (hydroxypropylcellulose) (HPC), higher T/C = longer survival): 7 of 10
survivor count (T/C endpoint: median survival time, dose: 4.0 mg/kg/injection, schedule: Q01DX009 (ip), vehicle: saline, higher T/C = longer survival): 9 of 10
survivor count [1]: 5 of 10
survivor count [2]: 0 of 10

O=NN(CCCl)C(=O)NCCO
survivor count (T/C endpoint: median survival time, dose: 7.2 mg/kg/injection, schedule: Q01DX007 (ip), vehicle: water, higher T/C = longer survival): 3 of 10 on day 55
survivor count (T/C endpoint: median survival time, dose: 12.0 mg/kg/injection, schedule: Q01DX007 (ip), vehicle: water, higher T/C = longer survival): 3 of 10 on day 55
survivor count (T/C endpoint: median survival time, dose: 20.0 mg/kg/injection, schedule: Q01DX007 (ip), vehicle: water, higher T/C = longer survival): 1 of 10 on day 55

N[C@@H](Cc1ccc(N(CCCl)CCCl)cc1)C(=O)O
T/C (T/C endpoint: median survival time, dose: 1.25 mg/kg/injection, schedule: Q01DX009 (ip), vehicle: Klucel (hydroxypropylcellulose) (HPC), higher T/C = longer survival): 130 % of control
T/C (T/C endpoint: median survival time, dose: 2.5 mg/kg/injection, schedule: Q01DX009 (ip), vehicle: Klucel (hydroxypropylcellulose) (HPC), higher T/C = longer survival): 140 % of control
survivor count (T/C endpoint: median survival time, dose: 5.0 mg/kg/injection, schedule: Q01DX009 (ip), vehicle: Klucel (hydroxypropylcellulose) (HPC), higher T/C = longer survival): 10 of 10
survivor count [1]: 10 of 10
survivor count (T/C endpoint: median survival time, dose: 10.0 mg/kg/injection, schedule: Q01DX009 (ip), vehicle: Klucel (hydroxypropylcellulose) (HPC), higher T/C = longer survival): 10 of 10
survivor count [2]: 9 of 10
survivor count (T/C endpoint: median survival time, dose: 32.0 mg/kg/injection, schedule: Q01DX009 (ip), vehicle: saline, higher T/C = longer survival): 6 of 10
survivor count (T/C endpoint: median survival time, dose: 64.0 mg/kg/injection, schedule: Q01DX009 (ip), vehicle: saline, higher T/C = longer survival): 1 of 10
survivor count (T/C endpoint: median survival time, dose: 128.0 mg/kg/injection, schedule: Q01DX009 (ip), vehicle: saline, higher T/C = longer survival): 0 of 10
survivor count (T/C endpoint: median survival time, dose: 256.0 mg/kg/injection, schedule: Q01DX009 (ip), vehicle: saline, higher T/C = longer survival): 0 of 10

Nc1n[nH]c(N)n1
T/C (T/C endpoint: median survival time, dose: 100.0 mg/kg/injection, schedule: Q01DX009 (ip), vehicle: saline, higher T/C = longer survival): 90, 98, 100, 101, 111, 115 % of control
T/C (T/C endpoint: median survival time, dose: 200.0 mg/kg/injection, schedule: Q01DX009 (ip), vehicle: saline with Tween-80, higher T/C = longer survival): 138 % of control
T/C (T/C endpoint: median survival time, dose: 200.0 mg/kg/injection, schedule: Q01DX009 (ip), vehicle: saline, higher T/C = longer survival): 90, 106, 108, 109, 114, 115 % of control
T/C (T/C endpoint: median survival time, dose: 400.0 mg/kg/injection, schedule: Q01DX009 (ip), vehicle: saline, higher T/C = longer survival): 96, 110, 114, 118, 127, 173 % of control
T/C (T/C endpoint: median survival time, dose: 800.0 mg/kg/injection, schedule: Q01DX009 (ip), vehicle: saline, higher T/C = longer survival): 101, 105 (2×), 114, 119, 123 % of control
T/C (T/C endpoint: median tumor weight (est.), dose: 200.0 mg/kg/injection, schedule: Q01DX009 (ip), vehicle: saline with Tween-80, evaluated on day 15, higher T/C = larger tumour): 127 % of control
T/C (T/C endpoint: median tumor weight (est.), dose: 400.0 mg/kg/injection, schedule: Q01DX009 (ip), vehicle: saline with Tween-80, evaluated on day 15, higher T/C = larger tumour): 128 % of control

NC(CS/C(Cl)=C/Cl)C(=O)O (stereo not drawn)
survivor count [1]: 10 of 10
survivor count (T/C endpoint: median survival time, dose: 12.0 mg/kg/injection, schedule: Q01DX009 (ip), vehicle: saline, higher T/C = longer survival): 10 of 10

CCOC(=O)C(CC(C)C)NC(=O)C(Cc1ccc(N(CCCl)CCCl)cc1)NC(C)=O (stereo not drawn)
survivor count (T/C endpoint: median survival time, dose: 8.0 mg/kg/injection, schedule: Q01DX009 (ip), vehicle: other, higher T/C = longer survival): 9 of 10
survivor count (T/C endpoint: median survival time, dose: 32.0 mg/kg/injection, schedule: Q01DX009 (ip), vehicle: other, higher T/C = longer survival): 10 of 10
survivor count (T/C endpoint: median survival time, dose: 64.0 mg/kg/injection, schedule: Q01DX009 (ip), vehicle: other, higher T/C = longer survival): 9 of 10
survivor count (T/C endpoint: median survival time, dose: 128.0 mg/kg/injection, schedule: Q01DX009 (ip), vehicle: other, higher T/C = longer survival): 9 of 10
survivor count (T/C endpoint: median survival time, dose: 256.0 mg/kg/injection, schedule: Q01DX009 (ip), vehicle: other, higher T/C = longer survival): 10 of 10

Source: PubChem BioAssay AID194 (DTP/NCI, 2004)
